{"source": "the supplement of paper PMC8728848", "assay_in_all_cases": "glycan array binding signal (z-score within array); higher = stronger binding", "conditions_in_all_cases": "glycan notation: IUPAC condensed, linker removed", "key": {"[1]": {"target": "Gal(b1-4)GlcNAc(b1-2)Man(a1-3)[GlcNAc(b1-2)Man(a1-6)]Man(b1-4)GlcNAc(b1-4)GlcNAc", "in_short": "(§1)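 Arrays were curated from the Consortium for Functional Glycomics database, 3228 in total, and kept only where the protein sequence was available. Binding is expressed as a within-array Z-score. This score was averaged across arrays of the same protein sequence at different concentrations or buffers and across linkers, and negative values can be read as non-binding.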"}, "[2]": {"target": "Gal(b1-4)GlcNAc(b1-2)Man(a1-3)[GlcNAc(b1-4)][Gal(b1-4)GlcNAc(b1-2)Man(a1-6)]Man(b1-4)GlcNAc(b1-4)GlcNAc", "in_short": "as §1"}, "[3]": {"target": "Gal(b1-4)GlcNAc(b1-2)Man(a1-3)[Man(a1-6)]Man(b1-4)GlcNAc(b1-4)GlcNAc", "in_short": "as §1"}, "[4]": {"target": "Gal(b1-4)GlcNAc(b1-2)Man(a1-6)Man(b1-4)GlcNAc(b1-4)GlcNAc", "in_short": "as §1"}, "[5]": {"target": "Gal(b1-4)GlcNAc(b1-2)Man(a1-6)[GlcNAc(b1-2)Man(a1-3)]Man(b1-4)GlcNAc(b1-4)GlcNAc", "in_short": "as §1"}, "[6]": {"target": "Gal(b1-4)GlcNAc(b1-2)Man(a1-6)[Man(a1-3)]Man(b1-4)GlcNAc(b1-4)GlcNAc", "in_short": "as §1"}, "[7]": {"target": "Gal(b1-4)GlcNAc(b1-2)[Gal(b1-4)GlcNAc(b1-4)]Man(a1-3)[Gal(b1-4)GlcNAc(b1-2)Man(a1-6)]Man(b1-4)GlcNAc(b1-4)GlcNAc", "in_short": "as §1"}, "[8]": {"target": "Gal(b1-4)GlcNAc(b1-2)[Gal(b1-4)GlcNAc(b1-4)]Man(a1-3)[Gal(b1-4)GlcNAc(b1-2)[Gal(b1-4)GlcNAc(b1-6)]Man(a1-6)]Man(b1-4)GlcNAc(b1-4)GlcNAc", "in_short": "as §1"}, "[9]": {"target": "Gal(b1-4)GlcNAc(b1-2)[Gal(b1-4)GlcNAc(b1-4)]Man(a1-3)[GlcNAc(b1-4)][Gal(b1-4)GlcNAc(b1-2)Man(a1-6)]Man(b1-4)GlcNAc(b1-4)GlcNAc", "in_short": "as §1"}, "[10]": {"target": "Gal(b1-4)GlcNAc(b1-2)[Gal(b1-4)GlcNAc(b1-4)]Man(a1-3)[GlcNAc(b1-4)][Gal(b1-4)GlcNAc(b1-2)[Gal(b1-4)GlcNAc(b1-6)]Man(a1-6)]Man(b1-4)GlcNAc(b1-4)GlcNAc", "in_short": "as §1"}, "[11]": {"target": "Gal(b1-4)GlcNAc(b1-2)[Gal(b1-4)GlcNAc(b1-6)]Man(a1-6)[Gal(b1-4)GlcNAc(b1-2)Man(a1-3)]Man(b1-4)GlcNAc(b1-4)GlcNAc", "in_short": "as §1"}, "[12]": {"target": "Gal(b1-4)GlcNAc(b1-2)[Gal(b1-4)GlcNAc(b1-6)]Man(a1-6)[Gal(b1-4)GlcNAc(b1-2)Man(a1-3)]Man(b1-4)GlcNAc(b1-4)[Fuc(a1-6)]GlcNAc", "in_short": "as §1"}, "[13]": {"target": "Gal(b1-4)GlcNAc(b1-2)[Gal(b1-4)GlcNAc(b1-6)]Man(a1-6)[GlcNAc(b1-4)][Gal(b1-4)GlcNAc(b1-2)Man(a1-3)]Man(b1-4)GlcNAc(b1-4)GlcNAc", "in_short": "as §1"}, "[14]": {"target": "Gal(b1-4)GlcNAc(b1-2)[Gal(b1-4)GlcNAc(b1-6)]Man(a1-6)[GlcNAc(b1-4)][Gal(b1-4)GlcNAc(b1-2)[Gal(b1-4)GlcNAc(b1-4)]Man(a1-3)]Man(b1-4)GlcNAc(b1-4)[Fuc(a1-6)]GlcNAc", "in_short": "as §1"}, "[15]": {"target": "Gal(b1-4)GlcNAc(b1-3)Gal(b1-3)GalNAc", "in_short": "as §1"}, "[16]": {"target": "Gal(b1-4)GlcNAc(b1-3)Gal(b1-3)GlcNAc", "in_short": "as §1"}, "[17]": {"target": "Gal(b1-4)GlcNAc(b1-3)Gal(b1-4)Glc", "in_short": "as §1"}, "[18]": {"target": "Gal(b1-4)GlcNAc(b1-3)Gal(b1-4)GlcNAc", "in_short": "as §1"}, "[19]": {"target": "Gal(b1-4)GlcNAc(b1-3)Gal(b1-4)GlcNAc(b1-2)Man(a1-3)[Gal(b1-4)GlcNAc(b1-3)Gal(b1-4)GlcNAc(b1-2)Man(a1-6)]Man(b1-4)GlcNAc(b1-4)GlcNAc", "in_short": "as §1"}}, "note": "The list shows a part of the results."}
{"binder": "Flo1 (Saccharomyces cerevisiae), P32768 (protein) SGATEACLPAGQRKSGMNINFYQYSLKDSSTYSNAAYMAYGYASKTKLGSVGGQTDISIDYNIPCVSSSGTFPCPQEDSYGNWGCKGMGACSNSQGIAYWSTDLFGFYTTPTNVTLEMTGYFLPPQTGSYTFKFATVDDSAILSVGGATAFNCCAQQQPPITSTNFTIDGIKPWGGSLPPNIEGTVYMYAGYYYPMKVVYSNAVSWGTLPISVTLPDGTTVSDDFEGYVYSFDDDLSQSNCTVPDPSNY", "values": [{"measurement": "glycan array binding signal (z-score)", "setting": "[1]", "result": -0.584}, {"measurement": "glycan array binding signal (z-score)", "setting": "[2]", "result": -0.208}, {"measurement": "glycan array binding signal (z-score)", "setting": "[3]", "result": -0.397}, {"measurement": "glycan array binding signal (z-score)", "setting": "[4]", "result": -0.4}, {"measurement": "glycan array binding signal (z-score)", "setting": "[5]", "result": -0.071}, {"measurement": "glycan array binding signal (z-score)", "setting": "[6]", "result": 0.098}, {"measurement": "glycan array binding signal (z-score)", "setting": "[7]", "result": -0.087}, {"measurement": "glycan array binding signal (z-score)", "setting": "[8]", "result": 0.251}, {"measurement": "glycan array binding signal (z-score)", "setting": "[9]", "result": 0.797}, {"measurement": "glycan array binding signal (z-score)", "setting": "[10]", "result": -0.539}, {"measurement": "glycan array binding signal (z-score)", "setting": "[11]", "result": 0.321}, {"measurement": "glycan array binding signal (z-score)", "setting": "[12]", "result": 0.499}, {"measurement": "glycan array binding signal (z-score)", "setting": "[13]", "result": 0.18}, {"measurement": "glycan array binding signal (z-score)", "setting": "[14]", "result": -0.584}, {"measurement": "glycan array binding signal (z-score)", "setting": "[15]", "result": -0.714}, {"measurement": "glycan array binding signal (z-score)", "setting": "[16]", "result": -0.51}, {"measurement": "glycan array binding signal (z-score)", "setting": "[17]", "result": -0.214}, {"measurement": "glycan array binding signal (z-score)", "setting": "[18]", "result": -0.488}, {"measurement": "glycan array binding signal (z-score)", "setting": "[19]", "result": 0.312}]}
